In PMC6004002:
Results are given in words; binding and its absence hold for the method and conditions named. In cells and extracts the contact can be indirect. These calls come from enrichment with a bait or labelling near it, and not all partners need be listed.

By UniProt entry, the sequences of proteins in these tests, tags left out. Where a name states a change or a piece, a line headed by the entry shows the natural chain unless it says otherwise.
UniProt Q88A90: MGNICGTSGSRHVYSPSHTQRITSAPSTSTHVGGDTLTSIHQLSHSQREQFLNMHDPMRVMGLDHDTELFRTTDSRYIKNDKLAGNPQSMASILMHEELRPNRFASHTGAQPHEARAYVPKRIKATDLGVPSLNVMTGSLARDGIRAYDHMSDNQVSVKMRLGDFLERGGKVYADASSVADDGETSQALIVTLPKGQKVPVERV
UniProt P93025: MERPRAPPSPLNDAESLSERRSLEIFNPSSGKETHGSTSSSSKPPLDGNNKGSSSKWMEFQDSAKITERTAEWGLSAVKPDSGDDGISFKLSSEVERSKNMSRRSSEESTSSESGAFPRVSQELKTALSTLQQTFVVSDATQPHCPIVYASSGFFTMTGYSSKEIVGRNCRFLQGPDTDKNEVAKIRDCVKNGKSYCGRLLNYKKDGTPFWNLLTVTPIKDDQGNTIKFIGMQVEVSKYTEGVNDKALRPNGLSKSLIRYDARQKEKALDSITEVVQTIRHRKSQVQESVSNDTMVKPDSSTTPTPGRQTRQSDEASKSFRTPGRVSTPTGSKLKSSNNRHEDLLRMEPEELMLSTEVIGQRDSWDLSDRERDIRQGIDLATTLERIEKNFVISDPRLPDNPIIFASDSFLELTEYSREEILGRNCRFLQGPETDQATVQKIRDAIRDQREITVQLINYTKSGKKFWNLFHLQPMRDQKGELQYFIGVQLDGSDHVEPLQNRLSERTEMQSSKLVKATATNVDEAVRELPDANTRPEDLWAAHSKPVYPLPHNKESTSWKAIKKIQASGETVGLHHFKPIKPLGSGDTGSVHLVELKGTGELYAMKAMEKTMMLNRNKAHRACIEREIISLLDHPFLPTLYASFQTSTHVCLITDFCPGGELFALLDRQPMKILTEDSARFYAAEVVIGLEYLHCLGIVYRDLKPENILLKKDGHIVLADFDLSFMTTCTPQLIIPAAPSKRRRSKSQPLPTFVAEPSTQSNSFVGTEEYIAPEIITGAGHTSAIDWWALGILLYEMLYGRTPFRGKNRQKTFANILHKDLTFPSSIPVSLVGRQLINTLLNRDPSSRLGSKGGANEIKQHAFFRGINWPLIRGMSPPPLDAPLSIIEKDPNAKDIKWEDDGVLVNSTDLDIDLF
UniProt Q9SY56: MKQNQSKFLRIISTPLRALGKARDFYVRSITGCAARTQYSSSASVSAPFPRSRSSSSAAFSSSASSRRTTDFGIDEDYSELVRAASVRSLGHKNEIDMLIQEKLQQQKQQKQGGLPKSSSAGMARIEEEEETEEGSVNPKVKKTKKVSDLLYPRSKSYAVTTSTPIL

B1: PATL4 (protein, UniProt Q94C59 1-540)
chain: MTAEVKVEEKQVESEVVIAPAVVPEETTVKAVVEETKVEEDESKPEGVEKSASFKEESDFFADLKESEKKALSDLKSKLEEAIVDNTLLKTKKKESSPMKEKKEEVVKPEAEVEKKKEEAAEEKVEEEKKSEAVVTEEAPKAETVEAVVTEEIIPKEEVTTVVEKVEEETKEEEKKTEDVVTEEVKAETIEVEDEDESVDKDIELWGVPLLPSKGAESTDVILLKFLRARDFKVNEAFEMLKKTLKWRKQNKIDSILGEEFGEDLATAAYMNGVDRESHPVCYNVHSEELYQTIGSEKNREKFLRWRFQLMEKGIQKLNLKPGGVTSLLQIHDLKNAPGVSRTEIWVGIKKVIETLQDNYPEFVSRNIFINVPFWFYAMRAVLSPFLTQRTKSKFVVARPAKVRETLLKYIPADELPVQYGGFKTVDDTEFSNETVSEVVVKPGSSETIEIPAPETEGTLVWDIAVLGWEVNYKEEFVPTEEGAYTVIVQKVKKMGANEGPIRNSFKNSQAGKIVLTVDNVSGKKKKVLYRYRTKTESSS
B2: PMI1 (protein, UniProt Q9C8E6 1-843)
chain: MAGEYSGSRSSNTQLLAELEALSENLYQKPQVSVGNRRTNSLALPRSSVPSLVTSADEVSTARAEDLTVSKPRARRLSLSPWRSRPKLEVEEEENVTQSNRIVKKPEESSSGSGVKEEKKGIWNWKPIRGLVRIGMQKLSCLLSVEVVAAQNLPASMNGLRLGVCVRKKETKDGAVQTMPCRVSQGSADFEETLFIKCHVYYSPANGKGSPAKFEARPFLFYLFAVDAKELEFGRHVVDLSELIQESVEKMNYEGARVRQWDMNWGLSGKAKGGELALKLGFQIMEKDGGAGIYSKQGEFGMKPSSKPKNFANSFGRKQSKTSFSVPSPKMTSRSEAWTPASGVESVSDFHGMEHLNLDEPEEKPEEKPVQKNDKPEQRAEDDQEEPDFEVVDKGVEFDDDLETEKSDGTIGERSVEMKEQHVNVDDPRHIMRLTELDSIAKQIKALESMMKDESDGGDGETESQRLDEEEQTVTKEFLQLLEDEETEKLKFYQHKMDISELRSGESVDDESENYLSDLGKGIGCVVQTRDGGYLVSMNPFDTVVMRKDTPKLVMQISKQIVVLPEAGPATGFELFHRMAGSGEELESKISSLMAIDELMGKTGEQVAFEGIASAIIQGRNKERANTSAARTVAAVKTMANAMSSGRRERIMTGIWNVEENPLTSAEEVLAVSLQKLEEMVVEGLKIQADMVDDEAPFEVSAAKGQKNPLESTIPLEEWQKEHRTQQKLTVLATVQLRDPTRRYEAVGGTVVVAVQAEEEEEKGLKVGSLHIGGVKKDAAEKRRLTAAQWLVEHGMGKKGKKKSNIKKKEKEEEEEEMLWSLSSRVMADMWLKSIRNPDVKLH
B3: At5g55860 (protein, UniProt Q9LVQ4 1-649)
chain: MVAKKGRRDSSDSSPIVEVGEIDTSAPFQSVKDAVNLFGEAAFSAEKPVFRKPNPQSAEKVLVKQTELHLAQKELNKLKEQLKNAETIREQALSELEWSKRTVDELTRKLEAVNESRDSANKATEAAKSLIEEAKPGNVSVASSSDAQTRDMEEYGEVCKELDTAKQELRKIRQVSNEILETKTVALSKVEEAKKVSKVHSEKIELLRKEIAAVNESVEQTKLACSQARKEQSEIFAEKEIQQKSYKAGMEESAKKSLALKNEFDPEFAKKLEVQLTETYNEIDELQKQMETAKASDIDSVNGVSLELNEAKGLFEKLVEEEKSLQELVESLKAELKNVKMEHDEVEAKEAEIESVAGDLHLKLSRSKSELEQCVTEESKAKAALEDMMLTINQISSETEAARREAEGMRNKAKELMKEAESAHLALEDSELHLRVALDEAEEAKAAETKALEQIKSMSEKTNAARNSTSSESGSQSITLSQEEFKSLSKRAEVFDKLAEMKVAAALAQVEAVRASENETLKKLETTQEEIKKLKTATEEALKKAAMADAAKKAVEGELRRWRERDQKKAEEAATRILAEAEMKMASESSPQQHYKAPKQKPVNNKLEKTKTSVVSKKVLMPNLSGIFNRKKNQVEWGSPSYLPGEKPF
B4: RPS7A (protein, UniProt Q9C514 1-191)
chain: MFSAQHKIHKEKGVELSELDEQVAQAFFDLENTNQELKSELKDLYVNSAVQVDISGGRKAIVVNVPYRLRKAYRKIHVRLVRELEKKFSGKDVILIATRRIVRPPKKGSAAKRPRNRTLTSVHEAILDDVVLPAEIVGKRTRYRLDGTKIMKVFLDPKERNNTEYKVEAFSAVYKKLTGKDVVFEFPITEA
B5: PATL1 (protein, UniProt Q56WK6 1-573)
chain: MAQEEVQKSADVAAAPVVKEKPITDKEVTIPTPVAEKEEVAAPVSDEKAVPEKEVTPEKEAPAAEAEKSVSVKEEETVVVAEKVVVLTAEEVQKKALEEFKELVREALNKREFTAPVTPVKEEKTEEKKTEEETKEEEKTEEKKEETTTEVKVEEEKPAVPAAEEEKSSEAAPVETKSEEKPEEKAEVTTEKASSAEEDGTKTVEAIEESIVSVSPPESAVAPVVVETVAVAEAEPVEPEEVSIWGVPLLQDERSDVILTKFLRARDFKVKEALTMLKNTVQWRKENKIDELVESGEEVSEFEKMVFAHGVDKEGHVVIYSSYGEFQNKELFSDKEKLNKFLSWRIQLQEKCVRAIDFSNPEAKSSFVFVSDFRNAPGLGKRALWQFIRRAVKQFEDNYPEFAAKELFINVPWWYIPYYKTFGSIITSPRTRSKMVLAGPSKSADTIFKYIAPEQVPVKYGGLSKDTPLTEETITEAIVKPAANYTIELPASEACTLSWELRVLGADVSYGAQFEPTTEGSYAVIVSKTRKIGSTDEPVITDSFKVGEPGKIVITIDNQTSKKKKVLYRFKTQ
B6: At5g16730 (protein, UniProt Q9LFE4 85-853)
chain: VAAVKGTESPQTTTRLSQIKEDLKKANERISSLEKDKAKALDELKQAKKEAEQVTLKLDDALKAQKHVEENSEIEKFQAVEAGIEAVQNNEEELKKELETVKNQHASDSAALVAVRQELEKINEELAAAFDAKSKALSQAEDASKTAEIHAEKVDILSSELTRLKALLDSTREKTAISDNEMVAKLEDEIVVLKRDLESARGFEAEVKEKEMIVEKLNVDLEAAKMAESNAHSLSNEWQSKAKELEEQLEEANKLERSASVSLESVMKQLEGSNDKLHDTETEITDLKERIVTLETTVAKQKEDLEVSEQRLGSVEEEVSKNEKEVEKLKSELETVKEEKNRALKKEQDATSRVQRLSEEKSKLLSDLESSKEEEEKSKKAMESLASALHEVSSEGRELKEKLLSQGDHEYETQIDDLKLVIKATNEKYENMLDEARHEIDVLVSAVEQTKKHFESSKKDWEMKEANLVNYVKKMEEDVASMGKEMNRLDNLLKRTEEEADAAWKKEAQTKDSLKEVEEEIVYLQETLGEAKAESMKLKENLLDKETEFQNVIHENEDLKAKEDVSLKKIEELSKLLEEAILAKKQPEEENGELSESEKDYDLLPKVVEFSSENGHRSVEEKSAKVETLDHEPPQEQISNGNSNGNGMEEKEVNGKPEVETEKKEKKDESQDDDKDDSVEVIFKMWESCQIEKKEAFPDKKSELESQEEEEDSSKIDESDKTSTENIDETGNALTAEDQLTMEKKIKKKKTLLGKVGNLLKKKAPVNQK
B7: PATL2 (protein, UniProt Q56ZI2 1-683)
chain: MAQEEIQKPTASVPVVKEETPAPVKEVEVPVTTEKAVAAPAPEATEEKVVSEVAVPETEVTAVKEEEVATGKEILQSESFKEEGYLASELQEAEKNALAELKELVREALNKREFTAPPPPPAPVKEEKVEEKKTEETEEKKEEVKTEEKSLEAETKEEEKSAAPATVETKKEEILAAPAPIVAETKKEETPVAPAPVETKPAAPVVAETKKEEILPAAPVTTETKVEEKVVPVETTPAAPVTTETKEEEKAAPVTTETKEEEKAAPGETKKEEKATASTQVKRASKFIKDIFVSVTTSEKKKEEEKPAVVTIEKAFAADQEEETKTVEAVEESIVSITLPETAAYVEPEEVSIWGIPLLEDERSDVILLKFLRARDFKVKEAFTMLKNTVQWRKENKIDDLVSEDLEGSEFEKLVFTHGVDKQGHVVIYSSYGEFQNKEIFSDKEKLSKFLKWRIQFQEKCVRSLDFSPEAKSSFVFVSDFRNAPGLGQRALWQFIKRAVKQFEDNYPEFVAKELFINVPWWYIPYYKTFGSIITSPRTRSKMVLSGPSKSAETIFKYVAPEVVPVKYGGLSKDSPFTVEDGVTEAVVKSTSKYTIDLPATEGSTLSWELRVLGADVSYGAQFEPSNEASYTVIVSKNRKVGLTDEPVITDSFKASEAGKVVITIDNQTFKKKKVLYRSKTQA
B8: REMORIN1.3 (protein, UniProt O80837 1-190)
chain: MAEEQKTSKVDVESPAVLAPAKEPTPAPVEVADEKIHNPPPVESKALAVVEKPIEEHTPKKASSGSADRDVILADLEKEKKTSFIKAWEESEKSKAENRAQKKISDVHAWENSKKAAVEAQLRKIEEKLEKKKAQYGEKMKNKVAAIHKLAEEKRAMVEAKKGEELLKAEEMGAKYRATGVVPKATCGCF
B9: At3g02880 (protein, UniProt Q9M8T0 24-627)
chain: SDLESDRRALLAVRNSVRGRPLLWNMSASSPCNWHGVHCDAGRVTALRLPGSGLFGSLPIGGIGNLTQLKTLSLRFNSLSGPIPSDFSNLVLLRYLYLQGNAFSGEIPSLLFTLPSIIRINLGENKFSGRIPDNVNSATRLVTLYLERNQLSGPIPEITLPLQQFNVSSNQLNGSIPSSLSSWPRTAFEGNTLCGKPLDTCEAESPNGGDAGGPNTPPEKKDSDKLSAGAIVGIVIGCVVGLLLLLLILFCLCRKRKKEENVPSRNVEAPVAAATSSAAIPKETVVVVPPAKATGSESGAVNKDLTFFVKSFGEFDLDGLLKASAEVLGKGTVGSSYKASFEHGLVVAVKRLRDVVVPEKEFRERLHVLGSMSHANLVTLIAYYFSRDEKLLVFEYMSKGSLSAILHGNKGNGRTPLNWETRAGIALGAARAISYLHSRDGTTSHGNIKSSNILLSDSYEAKVSDYGLAPIISSTSAPNRIDGYRAPEITDARKISQKADVYSFGVLILELLTGKSPTHQQLNEEGVDLPRWVQSVTEQQTPSDVLDPELTRYQPEGNENIIRLLKIGMSCTAQFPDSRPSMAEVTRLIEEVSHSSGSPNPVSD
B10: REM1.2 (protein, UniProt Q9M2D8 1-212)
chain: MAEEQKIALESESPAKVTTPAPADTPAPAPAEIPAPAPAPTPADVTKDVAEEKIQNPPPEQIFDDSKALTVVEKPVEEPAPAKPASASLDRDVKLADLSKEKRLSFVRAWEESEKSKAENKAEKKIADVHAWENSKKAAVEAQLKKIEEQLEKKKAEYAERMKNKVAAIHKEAEERRAMIEAKRGEDVLKAEETAAKYRATGIVPKATCGCF

Target: HopF2-BirA*-FLAG-HA (Pseudomonas syringae) (UniProt Q88A90)
Assay: proximity labelling; BioID in leaves of transgenic Arabidopsis expressing HopF2-BirA*-FLAG-HA; 2 mM biotin infiltrated, 30 uM dexamethasone 24 h at 25 °C; streptavidin sepharose purification of combined soluble and insoluble fractions, on-bead digestion, LC-MS/MS; SAINT against Col-0, BFDR ≤ 0.01; preys significant with HopF2-BirA* but not with BirA* alone

| Molecule | binding |
| --- | --- |
| PHOTOTROPIN 2 (from UniProt P93025 1-915) | binds |
| At1g10140 (from UniProt Q9SY56) | binds |
| B1 | binds |
| B2 | binds |
| B3 | binds |
| B4 | binds |
| B5 | binds |
| B6 | binds |
| B7 | binds |
| B8 | binds |
| B9 | binds |
| B10 | binds |
